Measured values published in PMC12759081.
No constants are given. Whether binding was seen depends on the method and setting. Binding seen in cells or lysates may run through a third protein. Some binding calls cover weakened binding; strength is not graded here.

The chains behind the UniProt entries cited, without tags or fusion partners.
UniProt Q9UQE7: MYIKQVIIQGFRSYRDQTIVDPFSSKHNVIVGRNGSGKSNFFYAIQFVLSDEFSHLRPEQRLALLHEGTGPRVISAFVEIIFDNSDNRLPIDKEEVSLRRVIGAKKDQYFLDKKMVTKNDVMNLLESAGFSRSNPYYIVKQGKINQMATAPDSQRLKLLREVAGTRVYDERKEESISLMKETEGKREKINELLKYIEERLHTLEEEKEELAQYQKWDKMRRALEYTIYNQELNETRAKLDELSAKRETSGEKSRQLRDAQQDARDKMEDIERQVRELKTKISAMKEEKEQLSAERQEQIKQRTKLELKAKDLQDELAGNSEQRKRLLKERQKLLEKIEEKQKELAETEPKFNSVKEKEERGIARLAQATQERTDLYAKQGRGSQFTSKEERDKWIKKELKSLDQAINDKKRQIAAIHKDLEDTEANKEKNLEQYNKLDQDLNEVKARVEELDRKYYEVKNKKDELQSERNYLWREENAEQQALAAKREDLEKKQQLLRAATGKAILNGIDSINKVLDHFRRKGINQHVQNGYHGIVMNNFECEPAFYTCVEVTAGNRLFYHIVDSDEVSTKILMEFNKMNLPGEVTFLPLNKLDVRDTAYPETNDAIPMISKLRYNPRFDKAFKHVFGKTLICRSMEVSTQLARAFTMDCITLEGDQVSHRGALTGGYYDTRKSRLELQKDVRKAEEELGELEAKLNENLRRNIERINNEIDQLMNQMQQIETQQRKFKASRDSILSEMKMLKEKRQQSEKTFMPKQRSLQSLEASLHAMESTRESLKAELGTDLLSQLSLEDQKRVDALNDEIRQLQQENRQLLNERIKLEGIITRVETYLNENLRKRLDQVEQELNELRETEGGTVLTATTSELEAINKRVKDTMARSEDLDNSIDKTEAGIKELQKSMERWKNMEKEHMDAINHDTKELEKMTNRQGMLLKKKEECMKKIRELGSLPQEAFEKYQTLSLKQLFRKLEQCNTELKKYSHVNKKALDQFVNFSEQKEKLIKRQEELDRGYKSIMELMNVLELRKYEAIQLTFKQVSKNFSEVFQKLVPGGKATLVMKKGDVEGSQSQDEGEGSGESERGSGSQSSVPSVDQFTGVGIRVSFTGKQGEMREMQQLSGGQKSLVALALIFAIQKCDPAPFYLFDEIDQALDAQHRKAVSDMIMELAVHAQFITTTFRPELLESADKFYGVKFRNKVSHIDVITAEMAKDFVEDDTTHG
UniProt Q96FF9: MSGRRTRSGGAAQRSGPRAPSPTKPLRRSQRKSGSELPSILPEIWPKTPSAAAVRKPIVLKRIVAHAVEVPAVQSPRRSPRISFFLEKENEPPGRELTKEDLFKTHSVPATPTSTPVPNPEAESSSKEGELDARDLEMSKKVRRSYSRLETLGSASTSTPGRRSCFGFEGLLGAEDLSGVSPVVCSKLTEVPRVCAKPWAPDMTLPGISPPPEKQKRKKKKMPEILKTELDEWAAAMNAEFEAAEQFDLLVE

Molecular target: SMC3 (human (endogenous in HEK293F, HEK293T and HeLa)) (UniProt Q9UQE7)
Test: co-IP; HEK293T RSMC+/+ and RSMC+/− cells in early S (0 h) or mid-S (5 h) phase; whole-cell lysates precipitated with anti-SMC3 antibody on protein G beads or control IgG, immunoblot

Q: For “Sororin, endogenous (from UniProt Q96FF9 1-252)”, which binding is on record?
A: binds
